Experimental data taken from patent publication US20220073608A1.
No constants are given. Whether binding was seen depends on the method and setting. Some results given as binding are weak or reduced against the parent protein; the word gives no strength.

Amino acid sequences for entries named in this document (tags omitted). A change or cut given only in a name is not applied to a line headed by its entry. Residues count along the entry.
UniProt O43157, residues 20-2135: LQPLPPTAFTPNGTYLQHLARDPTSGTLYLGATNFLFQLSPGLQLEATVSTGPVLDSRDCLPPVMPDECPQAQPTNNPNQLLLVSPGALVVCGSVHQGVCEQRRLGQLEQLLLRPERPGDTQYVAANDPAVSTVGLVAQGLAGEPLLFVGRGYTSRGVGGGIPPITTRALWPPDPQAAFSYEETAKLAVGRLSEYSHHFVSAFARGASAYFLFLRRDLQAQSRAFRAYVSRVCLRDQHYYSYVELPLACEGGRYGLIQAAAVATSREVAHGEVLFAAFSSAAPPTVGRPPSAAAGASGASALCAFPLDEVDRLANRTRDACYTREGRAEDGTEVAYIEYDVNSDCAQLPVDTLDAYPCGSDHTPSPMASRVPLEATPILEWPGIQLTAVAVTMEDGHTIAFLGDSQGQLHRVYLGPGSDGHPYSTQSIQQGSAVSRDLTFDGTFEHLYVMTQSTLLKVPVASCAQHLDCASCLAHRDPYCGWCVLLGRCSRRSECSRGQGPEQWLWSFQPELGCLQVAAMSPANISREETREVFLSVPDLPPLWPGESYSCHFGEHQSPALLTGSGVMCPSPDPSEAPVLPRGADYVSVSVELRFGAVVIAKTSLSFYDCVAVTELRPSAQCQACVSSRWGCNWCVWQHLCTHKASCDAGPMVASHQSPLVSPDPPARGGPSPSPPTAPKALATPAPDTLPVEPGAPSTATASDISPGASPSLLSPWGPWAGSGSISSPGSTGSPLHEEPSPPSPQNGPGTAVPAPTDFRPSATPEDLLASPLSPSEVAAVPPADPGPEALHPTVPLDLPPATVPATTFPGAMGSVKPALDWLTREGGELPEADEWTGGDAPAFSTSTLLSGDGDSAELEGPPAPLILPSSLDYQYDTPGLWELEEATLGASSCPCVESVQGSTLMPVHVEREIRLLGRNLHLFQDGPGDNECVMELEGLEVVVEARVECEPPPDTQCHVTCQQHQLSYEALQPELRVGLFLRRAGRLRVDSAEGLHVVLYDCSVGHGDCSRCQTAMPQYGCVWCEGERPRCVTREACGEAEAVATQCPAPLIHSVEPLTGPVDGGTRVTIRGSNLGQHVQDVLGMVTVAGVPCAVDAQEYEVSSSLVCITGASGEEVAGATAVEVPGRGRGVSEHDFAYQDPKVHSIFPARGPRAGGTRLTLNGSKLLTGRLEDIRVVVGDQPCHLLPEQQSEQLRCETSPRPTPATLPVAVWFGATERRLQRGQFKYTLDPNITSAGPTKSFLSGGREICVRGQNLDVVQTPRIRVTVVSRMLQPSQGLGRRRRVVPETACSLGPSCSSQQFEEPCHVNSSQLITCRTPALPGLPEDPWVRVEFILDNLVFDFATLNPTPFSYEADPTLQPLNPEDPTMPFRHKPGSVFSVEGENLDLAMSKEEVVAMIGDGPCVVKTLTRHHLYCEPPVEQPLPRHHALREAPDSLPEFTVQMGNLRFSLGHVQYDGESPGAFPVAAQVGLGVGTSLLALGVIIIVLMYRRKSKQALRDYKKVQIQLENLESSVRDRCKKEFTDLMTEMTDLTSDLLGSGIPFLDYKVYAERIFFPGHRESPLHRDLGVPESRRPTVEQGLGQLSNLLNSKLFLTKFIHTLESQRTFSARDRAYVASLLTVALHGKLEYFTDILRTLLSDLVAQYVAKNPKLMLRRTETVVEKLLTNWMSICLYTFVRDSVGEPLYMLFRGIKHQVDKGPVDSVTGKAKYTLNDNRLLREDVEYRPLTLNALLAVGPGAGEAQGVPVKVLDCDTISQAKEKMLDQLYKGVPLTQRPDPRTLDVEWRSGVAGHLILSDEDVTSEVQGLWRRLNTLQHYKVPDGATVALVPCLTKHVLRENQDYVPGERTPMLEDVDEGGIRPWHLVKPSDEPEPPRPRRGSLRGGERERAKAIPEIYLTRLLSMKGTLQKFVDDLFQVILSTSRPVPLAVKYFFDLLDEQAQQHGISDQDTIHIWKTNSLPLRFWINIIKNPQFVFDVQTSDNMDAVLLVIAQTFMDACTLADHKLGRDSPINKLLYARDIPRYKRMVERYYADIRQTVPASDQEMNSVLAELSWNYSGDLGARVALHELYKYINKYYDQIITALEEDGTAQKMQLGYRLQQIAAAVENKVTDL
UniProt Q92854: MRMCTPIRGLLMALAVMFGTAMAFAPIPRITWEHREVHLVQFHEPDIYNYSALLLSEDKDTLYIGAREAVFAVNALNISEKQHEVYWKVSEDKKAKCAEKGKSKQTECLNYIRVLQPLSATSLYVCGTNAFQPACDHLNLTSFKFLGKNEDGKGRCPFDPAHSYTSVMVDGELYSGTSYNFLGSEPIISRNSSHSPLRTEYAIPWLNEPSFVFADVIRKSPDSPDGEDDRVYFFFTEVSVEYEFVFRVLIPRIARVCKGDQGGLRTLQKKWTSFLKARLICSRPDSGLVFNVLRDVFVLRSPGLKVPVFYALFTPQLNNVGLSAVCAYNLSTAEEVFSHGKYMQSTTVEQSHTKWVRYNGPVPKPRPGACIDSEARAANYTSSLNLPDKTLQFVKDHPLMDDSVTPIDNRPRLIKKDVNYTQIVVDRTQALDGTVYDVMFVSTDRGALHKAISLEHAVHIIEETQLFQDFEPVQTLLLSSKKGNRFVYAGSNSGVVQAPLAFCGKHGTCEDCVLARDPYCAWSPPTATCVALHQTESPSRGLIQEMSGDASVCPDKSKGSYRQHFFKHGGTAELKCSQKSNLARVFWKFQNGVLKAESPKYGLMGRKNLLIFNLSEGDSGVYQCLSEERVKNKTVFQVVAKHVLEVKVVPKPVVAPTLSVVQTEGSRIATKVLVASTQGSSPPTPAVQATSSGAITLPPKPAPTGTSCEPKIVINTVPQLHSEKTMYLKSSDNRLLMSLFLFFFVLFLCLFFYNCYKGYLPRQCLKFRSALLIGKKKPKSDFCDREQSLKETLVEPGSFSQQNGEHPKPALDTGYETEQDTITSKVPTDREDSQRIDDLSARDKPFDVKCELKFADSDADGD

Target: human Plexin B1, full length, on 293F cells (293F hPlexin B1) (human) (UniProt O43157)
Experiment: FACS, 293F hPlexin B1 cells

## biotinylated hSEMA4D ECD-His (from UniProt Q92854 22-734) (ligand)
  binding: binds
